Measured values reported in article PMC10298087.
Residue numbers refer to the chain shown, from its start. Results are given in words; binding and its absence hold for the method and conditions named. In cells and extracts the contact can be indirect. Binding calls can cover weak binding; strength is not graded here. Tags and fused reporters may be left off the sequences shown.

Tests used:
Experiment in all cases: co-IP; FLAG-tagged mouse Trim28 (WT or mutants) and Gal4^DBD-KRAB in TRIM28-knockout K562 cells; IP with anti-FLAG, Western blot with anti-FLAG and anti-Gal4; whole-cell extract buffer with 300 mM NaCl, 0.1% Triton X-100, 4 °C
[1] = molecular target: T1, FLAG-tagged mouse Trim28-K305R (mouse) (UniProt Q62318)
T1 sequence: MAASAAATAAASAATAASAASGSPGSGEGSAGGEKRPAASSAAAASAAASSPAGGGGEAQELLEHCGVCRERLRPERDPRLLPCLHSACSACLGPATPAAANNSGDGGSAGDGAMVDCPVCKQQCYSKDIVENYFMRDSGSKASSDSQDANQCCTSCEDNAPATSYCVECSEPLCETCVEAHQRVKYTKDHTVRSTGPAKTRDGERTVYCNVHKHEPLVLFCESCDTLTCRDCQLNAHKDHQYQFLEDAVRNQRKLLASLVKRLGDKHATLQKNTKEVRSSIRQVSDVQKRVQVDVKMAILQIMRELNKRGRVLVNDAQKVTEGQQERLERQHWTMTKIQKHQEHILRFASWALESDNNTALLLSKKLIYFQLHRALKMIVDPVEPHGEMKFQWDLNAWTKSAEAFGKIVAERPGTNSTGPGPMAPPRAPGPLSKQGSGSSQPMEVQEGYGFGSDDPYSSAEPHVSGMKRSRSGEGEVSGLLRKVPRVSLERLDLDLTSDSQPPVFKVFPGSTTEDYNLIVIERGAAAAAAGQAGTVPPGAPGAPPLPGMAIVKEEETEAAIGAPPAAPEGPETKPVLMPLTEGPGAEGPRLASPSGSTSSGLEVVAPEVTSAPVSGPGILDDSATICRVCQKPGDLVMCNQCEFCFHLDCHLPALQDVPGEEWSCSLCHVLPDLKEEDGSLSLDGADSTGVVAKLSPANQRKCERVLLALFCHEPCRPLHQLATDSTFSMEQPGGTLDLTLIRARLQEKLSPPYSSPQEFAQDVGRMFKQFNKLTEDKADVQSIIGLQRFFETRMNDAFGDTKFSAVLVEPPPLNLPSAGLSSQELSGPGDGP

[2] = molecular target: T2, FLAG-tagged mouse Trim28-K267Q (mouse) (UniProt Q62318)
T2 sequence: T1 sequence with K267Q, R305K

[3] = molecular target: T3, FLAG-tagged mouse Trim28-K267R (mouse) (UniProt Q62318)
T3 sequence: T1 sequence with K267R, R305K

Measured: binding

Gal4 DNA-binding domain (Gal4^DBD)-KRAB (domain or fragment)
binds: [1] | [2] | [3]
